The source of these data is article PMC4933460.

Protein sequences, listed by entry. Tags and fused reporters are not part of them. Lines headed by an entry give the natural chain unless they say otherwise; changes in a name come on top. Chains listed by the source or under a name are the forms on record and can include a tag or linker.
UniProt P18075: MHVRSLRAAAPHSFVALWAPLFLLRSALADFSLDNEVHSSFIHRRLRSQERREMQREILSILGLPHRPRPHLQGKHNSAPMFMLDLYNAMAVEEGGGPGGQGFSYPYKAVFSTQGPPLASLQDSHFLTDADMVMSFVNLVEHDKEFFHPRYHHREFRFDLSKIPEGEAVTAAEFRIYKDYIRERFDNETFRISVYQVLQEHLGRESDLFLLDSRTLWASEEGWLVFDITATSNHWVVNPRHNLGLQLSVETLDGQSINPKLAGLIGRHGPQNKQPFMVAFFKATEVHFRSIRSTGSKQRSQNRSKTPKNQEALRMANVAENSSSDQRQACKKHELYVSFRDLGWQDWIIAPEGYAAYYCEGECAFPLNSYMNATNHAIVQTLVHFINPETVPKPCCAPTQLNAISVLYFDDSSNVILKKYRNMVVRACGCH
BMP-7 PD (30-292) H66A/R67A (P18075, form named): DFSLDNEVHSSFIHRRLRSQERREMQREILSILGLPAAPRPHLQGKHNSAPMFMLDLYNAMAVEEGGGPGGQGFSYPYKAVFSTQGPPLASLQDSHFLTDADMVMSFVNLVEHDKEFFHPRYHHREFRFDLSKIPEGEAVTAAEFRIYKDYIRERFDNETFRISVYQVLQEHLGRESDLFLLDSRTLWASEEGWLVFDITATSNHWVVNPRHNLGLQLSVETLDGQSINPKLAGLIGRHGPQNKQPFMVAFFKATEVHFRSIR
BMP-7 PD (30-292) P65A/H66A/R67A/P68A (P18075, form named): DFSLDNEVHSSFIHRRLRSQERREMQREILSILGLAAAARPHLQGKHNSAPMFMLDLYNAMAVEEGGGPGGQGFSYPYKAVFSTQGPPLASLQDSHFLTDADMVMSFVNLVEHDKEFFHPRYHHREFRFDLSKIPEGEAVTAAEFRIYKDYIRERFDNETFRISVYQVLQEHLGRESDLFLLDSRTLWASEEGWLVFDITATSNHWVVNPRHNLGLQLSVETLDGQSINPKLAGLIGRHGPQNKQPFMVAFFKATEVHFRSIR
BMP-7 PD (30-292) P65A (P18075, form named): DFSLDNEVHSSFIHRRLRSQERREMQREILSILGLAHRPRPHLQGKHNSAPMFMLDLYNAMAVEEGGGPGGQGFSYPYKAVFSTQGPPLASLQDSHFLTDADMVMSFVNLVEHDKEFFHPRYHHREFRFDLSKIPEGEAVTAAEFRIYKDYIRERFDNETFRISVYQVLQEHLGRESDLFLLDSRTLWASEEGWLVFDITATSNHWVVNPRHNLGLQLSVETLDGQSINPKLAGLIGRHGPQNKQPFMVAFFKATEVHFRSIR

Experiment [1] concerns the target BMP-7 growth factor (GF) dimer (UniProt P18075). The experiment in a line: SPR; BIAcore 2000; BMP-7 GF covalently coupled to a CM5 chip (500 RU), PD variants flown over in HBS-EP pH 7.4 with 1 M urea; 1:1 model with mass transfer; apparent KD = kd/ka; both purified. (In general: Surface plasmon resonance follows binding to a sensor surface in real time, without labels.)

Experiment [2] addresses BMP-7 PD truncation variant 55-292 (UniProt P18075). Put plainly: SPR; PD/PD interaction: 500-800 RU of full-length PD (30-292) or truncated variants (48-292, 55-292) immobilised, 0-320 nM PD variants injected in HBS-EP with 1 M urea; apparent KD; both purified.
Experiment [3] has as its target BMP-7 prodomain, full-length PD (residues 30-292), E. coli (UniProt P18075). The description is as above.
The target of experiment [4] is BMP-7 PD (30-292) H66A/R67A (UniProt P18075). The experiment in a line: ELISA; sandwich ELISA of reconstitution in solution: PD variants dialysed with the GF in TBS with 1 M urea overnight, captured by coated monoclonal anti-His6 antibody (C-terminal His6 of the PD), GF detected with an anti-GF antibody; both purified. Background: In an ELISA, binding on a coated surface is turned into a signal by an enzyme label.

Experiment [5] has as its target BMP-7 PD (30-292) P65A/H66A/R67A/P68A (UniProt P18075). Described as above.
A further experiment addresses BMP-7 PD (30-292) P65A (UniProt P18075). Described as above.
The target of experiment [6] is BMP-7 PD truncation variant 74-292 (UniProt P18075). Put plainly: ELISA; BMP-7 PD variants coated at 0.1 μM on MaxiSorp 96-well plates, BMP-7 GF incubated in solution, bound GF detected with a polyclonal anti-BMP-7 GF antibody; both purified.
In experiment [7] the target is BMP-7 PD truncation variant 48-292 (UniProt P18075). The experiment in a line: SPR; PD/PD interaction: 500-800 RU of full-length PD (30-292) or truncated variants (48-292, 55-292) immobilised, 0-320 nM PD variants injected in HBS-EP with 1 M urea; apparent KD; both purified.
The target in experiment [8] is BMP-7 prodomain of the HEK293 EBNA cell-expressed BMP-7 complex (UniProt P18075). Put plainly: velocity sedimentation in sucrose gradients; 10 μg BMP-7 complex dialysed against TBS with 4 M urea, 5-20% sucrose gradient, 28 fractions, Western blots for PD and GF; both purified. A general note: A western blot detects proteins with antibodies after separation by electrophoresis.

Experiment [9] deals with BMP-7 growth factor (GF) dimer (UniProt P18075). Described as above.
Experiment [10] deals with BMP-7 prodomain-growth factor complex (UniProt P18075). Put plainly: negative-stain TEM, single particle classification; BMP-7 complex dialysed together with the fibrillin-1 N-terminal fragment at a 1:4 molar ratio, total protein 10-20 μg/ml, negatively stained; both purified.

Results are given in words; binding and its absence hold for the method and conditions named. Some results given as binding are weak or reduced against the parent protein; the word gives no strength.

Turning to “BMP-7 PD truncation variant 69-292 (from UniProt P18075 69-292) (domain or fragment)”, in [1], the binding result is “no binding”.
Take “BMP-7 PD truncation variant 55-292 (from UniProt P18075 55-292) (domain or fragment)”: in experiment [2], the binding entry is listed as “no binding (tested: 0–320 nM)”.
With “BMP-7 PD variant 185-292 (from UniProt P18075 185-292) (domain or fragment)”, the binding entry is listed as “no binding” in experiment [1] and “no binding (tested: 0–320 nM)” in [3].
With “BMP-7 growth factor (GF) dimer (from UniProt P18075 293-431) (ligand)”, the binding entry (in [4]; in [5]; with BMP-7 PD (30-292) P65A; in [6]) was “no binding” each time.
Consider “BMP-7 PD truncation variant 116-292 (from UniProt P18075 116-292) (domain or fragment)”, for which the figures for the binding entry in experiment [1] and in experiment [3] were “no binding” and “no binding (tested: 0–320 nM)”, respectively.
Regarding “BMP-7 PD truncation variant 48-292 (from UniProt P18075 48-292) (domain or fragment)”, the binding result in experiment [7] is on record as “no binding (tested: 0–320 nM)”.
On to “BMP-7 PD truncation variant 67-292 (from UniProt P18075 67-292) (domain or fragment)”, for which the binding entry in experiment [1] is recorded as “no binding”.
Consider “BMP-7 PD truncation variant 74-292 (from UniProt P18075 74-292) (domain or fragment)”, for which the binding result in experiment [1] was “no binding”; in experiment [3], “no binding (tested: 0–320 nM)”.
For the substance “BMP-7 prodomain of the HEK293 EBNA cell-expressed BMP-7 complex (from UniProt P18075 30-292) (domain or fragment)”, the binding result in experiment [8] and in experiment [9] was “no binding (condition: in 4 M urea)” throughout.
For “fibrillin-1 unique N-terminal domain (FUN) with the first EGF-like domain (Ser19-His118) fused with cbEGF19-22 (Asp1363-Val1527) (from UniProt P35555 19-118; P35555 1363-1527) (domain or fragment)”, in experiment [10], the binding entry is on record as “binds”.
